Two substances from paper PMC8208988 can be followed below.

The chains behind the UniProt entries cited, without tags or fusion partners. Residues count along the entry.
UniProt Q96CB9, residues 26-384: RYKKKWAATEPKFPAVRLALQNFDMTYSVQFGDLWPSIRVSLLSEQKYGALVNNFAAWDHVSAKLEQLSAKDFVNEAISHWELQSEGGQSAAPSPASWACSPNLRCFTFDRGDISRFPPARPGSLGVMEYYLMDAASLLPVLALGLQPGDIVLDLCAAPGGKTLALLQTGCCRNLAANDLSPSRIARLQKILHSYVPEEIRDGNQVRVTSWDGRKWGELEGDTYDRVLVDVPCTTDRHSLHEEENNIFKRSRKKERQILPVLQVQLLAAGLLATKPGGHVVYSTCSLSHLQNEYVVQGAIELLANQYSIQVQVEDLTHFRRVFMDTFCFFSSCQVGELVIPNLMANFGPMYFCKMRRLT

Test [1] deals with T1, MTERF4 (human (endogenous in HEK 293 EBNA)) (UniProt Q7Z6M4).
T1 sequence: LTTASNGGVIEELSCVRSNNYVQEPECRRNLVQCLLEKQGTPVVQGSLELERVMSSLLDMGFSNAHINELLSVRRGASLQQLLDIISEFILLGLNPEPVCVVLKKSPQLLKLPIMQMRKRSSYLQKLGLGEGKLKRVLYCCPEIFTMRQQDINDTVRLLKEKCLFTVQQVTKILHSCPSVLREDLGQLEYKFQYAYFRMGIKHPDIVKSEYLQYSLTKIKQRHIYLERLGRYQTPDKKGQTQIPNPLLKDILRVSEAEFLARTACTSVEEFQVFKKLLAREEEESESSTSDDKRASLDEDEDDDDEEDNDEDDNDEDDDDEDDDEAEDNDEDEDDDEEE
Kind of test: cryo-EM structure; mt-LSU assembly intermediates affinity-purified through MTG1-3xFLAG from HEK 293 EBNA mitochondria; states A, B, C at 2.9, 3.1, 3.1 Å; 20 mM HEPES-KOH pH 7.6, 100 mM KCl, 20 mM MgCl2, 1 mM DTT.

Test [2] concerns the target T2, FLAG-tagged MTERF4 (human) (UniProt Q7Z6M4).
T2 sequence: T1 sequence
The test is described as follows: co-sedimentation; continuous 10-30% sucrose gradient of mitochondrial lysates (2% digitonin, 100 mM KCl, 20 mM MgCl2, 10 mM Tris-HCl pH 7.5) from HEK 293T cells co-expressing MTERF4-FLAG and an NSUN4-HA variant; fractions immunoblotted for HA, FLAG, bL12m, bS16m. A general note: A western blot detects proteins with antibodies after separation by electrophoresis.

These are yes or no findings as the source states them, for the method shown. For some assays here: In cells and extracts the contact can be indirect. Some binding calls cover weakened binding; strength is not graded here. For some assays here: Where a sequence is shown, tags or fusion partners need not be part of it.

“NSUN4 (from UniProt Q96CB9 26-384) (enzyme)”: in test [1], the binding entry is on record as “binds”.

As to “HA-tagged NSUN4, wild type (from UniProt Q96CB9 26-384) (enzyme)”, in test [2], the binding entry is “binds”.
